Data taken from paper PMC5833439.

Target: T1, decidual protein induced by progesterone (DEPP) (UniProt Q9NTK1)
T1 sequence: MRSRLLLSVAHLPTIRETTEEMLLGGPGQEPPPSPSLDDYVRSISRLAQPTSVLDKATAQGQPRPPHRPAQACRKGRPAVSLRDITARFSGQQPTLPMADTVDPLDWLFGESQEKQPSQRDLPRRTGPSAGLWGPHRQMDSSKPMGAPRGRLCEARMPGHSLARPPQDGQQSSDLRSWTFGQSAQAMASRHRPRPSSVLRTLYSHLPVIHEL
Assay: co-IP; DEPP immunoprecipitated (anti-DEPP in the text; Flag-DEPP immunoprecipitates in the legend) from HCT116 cells with or without treatment with baicalin or siDEPP; immunoblot for Ras

Substance: Ras (human (endogenous in HCT116))
- binding: binds

No constants are given. Whether binding was seen depends on the method and setting. Binding seen in cells or lysates may run through a third protein. A result given as binding can be weak or reduced; the word gives no strength.
